# Assay results taken from patent US20250255994A1, “DIMERIC IMMUNOCONJUGATES FOR USE IN TREATING CANCERS AND METHODS OF USE” (Medicovestor, Inc., priority 2023, published 2025).
# These are yes or no findings as the source states them, for the method shown. Some binding calls cover weakened binding; strength is not graded here. For some assays here: Where a sequence is shown, tags or fusion partners need not be part of it.
# B1: mouse-human chimeric anti-Sp17 IgG2a/kappa monoclonal antibody chAB2 (antibody, V domains shown)
# VH: QVQLQQSGAEVKKPGSSVKVSCKASGGTFSSYAISWVRQAPGQGLEWMGRIIPILGIANYAQKFQGRVTITADKSTSTAYMELSSLRSEDTAVYYCARPSEEVVAAYGAFDIWGQGTTVTVSS
# VL: EIVLTQSPLSLPVRPGEPASISCRASQSLLRSDGFNYLDWYLQKPGQSPQLLVYLGSNRASGVPDRFSGSGSGTDFTLKISRVEAEDVGVYYCMQAVQTPYIFGQGTKLEIK
# notes: also called chimeric antibody; anti-Sp17 antibody chAB2
# B2: human anti-Sp17 IgG4/kappa monoclonal antibody SP17-AB2 (antibody, V domains shown)
# VH: B1 VH
# VL: EIVLTQSPLSLPVRPGEPASISCRASQSLLRSDGFNYLDWYLQKPGQSPQLLVYLGSNRASGVPDRFSGSGSGTDFTLKISRVEAEDVGVYYCMQAVQTPYIFGQGTKLEIKR
# B3: anti-Sp17 Fab clone identified by bio-panning of the human Fab phage display library (Fab, V domains shown)
# VH: B1 VH
# VL: B1 VL
# Columns and labels:
# [1] = target: T1, recombinant Sp17 protein (human) (UniProt Q15506); assay: western blot of Sp17 protein
# T1 sequence (looked up): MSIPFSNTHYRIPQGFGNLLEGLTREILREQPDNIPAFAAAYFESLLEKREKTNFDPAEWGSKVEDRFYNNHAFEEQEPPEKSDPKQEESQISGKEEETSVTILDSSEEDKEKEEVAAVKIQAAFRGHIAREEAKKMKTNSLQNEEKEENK
# [2] = target: T1, recombinant Sp17 protein (human); assay: western blot of recombinant Sp17 protein
# [3] = target: T1, recombinant Sp17 protein (human); assay: western blot of Sp17 protein on an SDS-PAGE gel, detected with chAB2
# [4] = target: T2, recombinant 6His-Sp17 protein (human, UniProt Q15506 1-151); assay: surface plasmon resonance (Biacore T200), 6His-Sp17 at six concentrations against chAB2, fitted cycles
# T2 construct: Analyte of the surface plasmon resonance experiment; not shown: 6His tag
# T2 sequence (looked up): T1 sequence (looked up)
# [5] = target: T1, recombinant Sp17 protein (human); assay: western blot
# [6] = target: T1, recombinant Sp17 protein (human); assay: western blot of Sp17 protein (lane 1) and a tumor cell lysate (lane 2)
# [7] = target: T1, recombinant Sp17 protein (human); assay: western blot of Sp17 protein on an SDS-PAGE gel, detected with SP17-AB2
# [8] = target: T1, recombinant Sp17 protein (human); assay: ELISA of phage display Fab clones on Sp17
binder,measurement,setting,value
B1,binding,[1],binds
same,binding,[2],binds
same,binding,[3],binds
same,binding,[4],binds
B2,binding,[5],binds
same,binding,[6],binds
same,binding,[7],binds
B3,binding,[8],binds
